Results as given in paper PMC12356973.
No constants are given. Whether binding was seen depends on the method and setting. Binding seen in cells or lysates may run through a third protein. Some entries that bind do so weakly or less than the wild type.

Chains of the proteins cited; added tags and fusions are not shown. Residues count along the entry.
UniProt P38646, residues 47-679: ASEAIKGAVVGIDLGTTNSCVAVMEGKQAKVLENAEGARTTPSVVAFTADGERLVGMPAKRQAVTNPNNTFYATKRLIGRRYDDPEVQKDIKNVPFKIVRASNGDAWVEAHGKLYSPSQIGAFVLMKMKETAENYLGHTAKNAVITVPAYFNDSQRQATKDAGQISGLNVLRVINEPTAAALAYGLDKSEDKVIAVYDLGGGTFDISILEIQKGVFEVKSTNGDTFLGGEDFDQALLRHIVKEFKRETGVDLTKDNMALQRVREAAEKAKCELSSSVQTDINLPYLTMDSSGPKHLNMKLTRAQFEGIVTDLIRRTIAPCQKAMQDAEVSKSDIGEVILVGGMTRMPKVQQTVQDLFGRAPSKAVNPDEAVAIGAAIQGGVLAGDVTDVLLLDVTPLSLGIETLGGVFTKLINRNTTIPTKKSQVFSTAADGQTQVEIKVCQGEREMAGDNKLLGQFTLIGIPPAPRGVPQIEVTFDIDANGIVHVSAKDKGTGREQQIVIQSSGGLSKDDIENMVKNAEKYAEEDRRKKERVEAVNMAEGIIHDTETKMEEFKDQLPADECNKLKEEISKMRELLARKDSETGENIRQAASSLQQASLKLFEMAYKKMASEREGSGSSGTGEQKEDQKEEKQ

B1: BOLA2 (protein, UniProt Q9H3K6 1-86)
chain: MELSAEYLREKLQRDLEAEHVEVEDTTLNRCSCSFRVLVVSAKFEGKPLLQRHRLVNACLAEELPHIHAFEQKTLTPDQWARERQK

Assays:
[1] = target: SARS-CoV-2 nsp14, Strep II-tagged (SARS-CoV-2) (UniProt P0DTD1); test: co-IP
[2] = target: SARS-CoV-2 nsp10, Strep II-tagged (SARS-CoV-2) (UniProt P0DTD1); test: co-IP

| Molecule | binding [1] | binding [2] |
| --- | --- | --- |
| HSPA9 (from UniProt P38646 47-679) | binds | – |
| PCBP1 (from UniProt Q15365 1-356) | binds | binds |
| B1 | binds | binds |
